Structures can show the parent of a compound that is named as a salt. The list shows a part of the results. Single values are uncertain, as repeats are few or missing.
How the values were obtained:
Test in all cases: reduction in cell viability relative to untreated/vehicle; higher = more growth inhibition
Conditions in all cases: 200 nM; 72 h
[1] = test system: M229P (parental melanoma line)
[2] = test system: M229R (matched melanoma line resistant to BRAF inhibitors)
[3] = test system: M238P (parental melanoma line)
[4] = test system: M238R (matched melanoma line resistant to BRAF inhibitors)
[5] = test system: M249P (parental melanoma line)
[6] = test system: M249R (matched melanoma line resistant to BRAF inhibitors)
[7] = test system: UACC62P (parental melanoma line)
[8] = test system: UACC62R (matched melanoma line resistant to BRAF inhibitors)

| Compound | reduction in cell viability [1] [%] | reduction in cell viability [2] [%] | reduction in cell viability [3] [%] | reduction in cell viability [4] [%] | reduction in cell viability [5] [%] | reduction in cell viability [6] [%] | reduction in cell viability [7] [%] | reduction in cell viability [8] [%] |
| --- | --- | --- | --- | --- | --- | --- | --- | --- |
| CN1CCC(=C2c3ccccc3CC(=O)c3sccc32)CC1 [Ketotifen] | < 0 | < 0 | < 0 | < 0 | < 0 | < 0 | 0.04 | < 0 |
| CCc1ccc(CCOc2ccc(CC3SC(=O)NC3=O)cc2)nc1 (stereo unspecified) [Pioglitazone HCl] | < 0 | < 0 | < 0 | < 0 | < 0 | < 0 | < 0 | < 0 |
| CCC(=C/[C@H](C)C/C=C/C(C)=C/[C@@H](C)C(=O)[C@@H](C)[C@H](O)[C@@H](C)C/C(C)=C/C(=O)O)/C=C/[C@@H]1OC(=O)C=C[C@@H]1C [Elactocin] | 72.7 | 71.6 | 81.2 | 45.7 | 58.1 | 71.2 | 54 | 88.6 |
| CS(=O)(=O)c1ccc(C(=O)Nc2ccc(Cl)c(-c3ccccn3)c2)c(Cl)c1 [Vismodegib (GDC-0449)] | < 0 | < 0 | < 0 | < 0 | < 0 | < 0 | 10.9 | < 0 |
| C1COC(NC(C2CC2)C2CC2)=N1 [Rilmenidine] | < 0 | < 0 | < 0 | < 0 | < 0 | < 0 | 2.37 | < 0 |
| COc1cc2c(cc1OC)[C@@H]1C(=O)c3ccc4c(c3O[C@@H]1CO2)C=CC(C)(C)O4 [Deguelin] | < 0 | < 0 | < 0 | < 0 | < 0 | < 0 | < 0 | < 0 |
| CCC[C@H](Nc1nc(-c2ccc(NC(=O)NCC)c(OC)c2)ncc1C)c1cccnc1 [Lexibulin hydrochloride] | 45.2 | 54.8 | 56.6 | 61.2 | 62.3 | 52.9 | 52.8 | 84.6 |
| CCOc1ccn(-c2ccc(F)cc2)c(=O)c1C(=O)Nc1ccc(Oc2ccnc(N)c2Cl)c(F)c1 | < 0 | < 0 | < 0 | < 0 | < 0 | < 0 | < 0 | < 0 |
| O=C(NC[C@H]1CN(c2ccc(N3CCOCC3=O)cc2)C(=O)O1)c1ccc(Cl)s1 [Rivaroxaban] | < 0 | < 0 | < 0 | < 0 | < 0 | < 0 | < 0 | < 0 |
| CN(C)c1nc(Cc2ccc(NC(=O)c3ccc4ccccc4c3)cc2)nc(Cl)c1CC(=O)O | < 0 | < 0 | < 0 | < 0 | < 0 | < 0 | < 0 | < 0 |
| CC[C@@H]1/C=C(\C)C[C@H](C)C[C@H](OC)[C@H]2O[C@@](O)(C(=O)C(=O)N3CCCC[C@H]3C(=O)O[C@H](/C(C)=C/[C@@H]3CC[C@H](Cl)[C@H](OC)C3)[C@H](C)[C@@H](O)CC1=O)[C@H](C)C[C@@H]2OC [Pimecrolimus] | < 0 | < 0 | < 0 | < 0 | < 0 | < 0 | < 0 | < 0 |
| COc1ccc(-c2oc3cc(OC)ccc3c2C(=O)c2ccc(C#N)cc2)cc1 | < 0 | < 0 | < 0 | < 0 | < 0 | < 0 | < 0 | < 0 |
| O=C(O)C(=O)Nc1cccc(-c2nnn[nH]2)c1 [Acitazanolast] | < 0 | < 0 | < 0 | < 0 | < 0 | < 0 | 4.55 | < 0 |
| CCOC(=O)C1=C(C)NC(=S)NC1c1cccc(O)c1 (stereo unspecified) [Monastrol] | < 0 | < 0 | < 0 | < 0 | < 0 | < 0 | < 0 | < 0 |
| CC1=C[C@@H]2[C@H]([C@@H](O)C[C@@]3(C)[C@H]2C[C@@H](C)[C@]3(O)C(=O)CO)[C@@]2(C)Cc3cnn(-c4ccccc4)c3C=C12 [Deacetyl cortivazol] | < 0 | < 0 | < 0 | < 0 | < 0 | < 0 | 17.9 | < 0 |
| C=CCNC1=C2C[C@@H](C)C[C@H](OC)[C@H](O)[C@@H](C)/C=C(\C)[C@H](OC(N)=O)[C@@H](OC)/C=C\C=C(/C)C(=O)NC(=CC1=O)C2=O [Tanespimycin] | < 0 | < 0 | 43.2 | 37 | < 0 | < 0 | 67.3 | 77.3 |
| O=C1CCCC2=C1C(c1[nH]ncc1Cl)N=C(Nc1nc3ccccc3o1)N2 (stereo unspecified) | < 0 | < 0 | < 0 | < 0 | < 0 | < 0 | 12.2 | < 0 |
| CCCn1c(=O)c2[nH]c(-c3cnn(Cc4cccc(C(F)(F)F)c4)c3)nc2n(CC)c1=O | < 0 | 6.72 | < 0 | < 0 | < 0 | 10.6 | 3.24 | < 0 |
| CC(=O)OC[C@H]1O[C@@H]([S-])[C@H](OC(C)=O)[C@@H](OC(C)=O)[C@@H]1OC(C)=O.CCP(CC)CC.[Au+] [Auranofin] | 12.5 | 24.4 | 65.9 | 73.4 | 3.08 | 7.54 | 16.2 | 22.4 |
| CCCCCCCCCCCCCCCC(=O)OC[C@@H](NC(=O)C(Cl)Cl)[C@H](O)c1ccc([N+](=O)[O-])cc1 [Chloramphenicol palmitate] | < 0 | < 0 | < 0 | < 0 | < 0 | < 0 | < 0 | < 0 |
| CCC1=C[C@@H]2CN(C1)Cc1c([nH]c3ccccc13)[C@@](C(=O)OC)(c1cc3c(cc1OC)N(C)[C@H]1[C@@](O)(C(=O)OC)[C@H](OC(C)=O)[C@]4(CC)C=CCN5CC[C@]31[C@@H]54)C2 [Vinorelbine tartrate] | 39.5 | 43.9 | 72.1 | 62.5 | 62.1 | 50.6 | 43 | 80.7 |

Not a retest: 2 of the compounds above.

| Compound | reduction in cell viability [1] [%] | reduction in cell viability [2] [%] | reduction in cell viability [3] [%] | reduction in cell viability [4] [%] | reduction in cell viability [5] [%] | reduction in cell viability [6] [%] | reduction in cell viability [7] [%] | reduction in cell viability [8] [%] |
| --- | --- | --- | --- | --- | --- | --- | --- | --- |
| CN1CCC(=C2c3ccccc3CC(=O)c3sccc32)CC1 [Ketotifen] | < 0 | < 0 | < 0 | < 0 | < 0 | < 0 | 0.04 | < 0 |
| CCc1ccc(CCOc2ccc(CC3SC(=O)NC3=O)cc2)nc1 (stereo unspecified) [Pioglitazone HCl] | < 0 | < 0 | < 0 | < 0 | < 0 | < 0 | < 0 | < 0 |

Additional entries:

| Compound | reduction in cell viability [1] [%] | reduction in cell viability [2] [%] | reduction in cell viability [3] [%] | reduction in cell viability [4] [%] | reduction in cell viability [5] [%] | reduction in cell viability [6] [%] | reduction in cell viability [7] [%] | reduction in cell viability [8] [%] |
| --- | --- | --- | --- | --- | --- | --- | --- | --- |
| CC(C)c1ccc2oc3nc(N)c(C(=O)O)cc3c(=O)c2c1 [Amlexanox] | < 0 | < 0 | < 0 | < 0 | 3.02 | 0.41 | < 0 | < 0 |
| C#C[C@]1(O)CC[C@H]2[C@@H]3CCc4cc(O)ccc4[C@H]3CC[C@@]21C [Ethinylestradiol] | < 0 | < 0 | < 0 | < 0 | < 0 | < 0 | 6.11 | < 0 |
| CC(=O)O/N=C1/C(c2c(O)[nH]c3cc(Br)ccc23)=Nc2ccccc21 [6-Bromoindirubin-3-acetoxime] | < 0 | < 0 | < 0 | < 0 | < 0 | < 0 | < 0 | < 0 |
| CC(C)CN(C[C@@H](O)[C@H](Cc1ccccc1)NC(=O)O[C@H]1CO[C@H]2OCC[C@H]21)S(=O)(=O)c1ccc(N)cc1 [Darunavir] | < 0 | < 0 | < 0 | < 0 | < 0 | < 0 | < 0 | < 0 |
| Cc1cc(O)c2c3c4c(cc(O)c13)C(C)(C)C(=O)c1c(O)cc(O)c(c1-4)C2=O [Resistomycin] | < 0 | < 0 | < 0 | < 0 | < 0 | < 0 | 2.49 | < 0 |
| CN(C/C=C/C#CC(C)(C)C)Cc1cccc2ccccc12 [Terbinafine hydrochloride] | < 0 | < 0 | < 0 | < 0 | < 0 | < 0 | < 0 | < 0 |
| Clc1ccc(C(Cn2ccnc2)OCc2ccc(Sc3ccccc3)cc2)c(Cl)c1 (stereo unspecified) [Fenticonazole nitrate] | < 0 | < 0 | < 0 | < 0 | < 0 | < 0 | 10.4 | < 0 |
| C[C@@H](N)[C@H]1CC[C@H](C(=O)Nc2ccncc2)CC1 | < 0 | < 0 | < 0 | < 0 | < 0 | < 0 | < 0 | < 0 |
| CN(C)C(=O)COC(=O)Cc1ccc(OC(=O)c2ccc(NC(=N)N)cc2)cc1 [Camostat mesylate] | < 0 | < 0 | < 0 | < 0 | < 0 | < 0 | < 0 | < 0 |
| O=C(O)c1cc(=O)c2c(OCC(O)COc3cccc4oc(C(=O)O)cc(=O)c34)cccc2o1 [Sodium cromoglycate] | < 0 | < 0 | < 0 | < 0 | < 0 | < 0 | < 0 | < 0 |
| O=C(Nc1ccccc1)Nc1ccc(-c2ccc(C(=O)[C@@H]3CCC[C@H]3C(=O)O)cc2)cc1 | < 0 | < 0 | < 0 | < 0 | < 0 | 3.64 | 0.21 | < 0 |
| CC(NCc1ccc2c(c1)nc(NC(=O)c1ccc(-c3cn[nH]c3)s1)n2CC(C)(C)O)C(C)(C)C (stereo unspecified) | 59.7 | 67 | 70.3 | 59.2 | 80 | 81.8 | 72 | 76.5 |
| CN(C)[C@@H]1C(O)=C(C(N)=O)C(=O)[C@@]2(O)C(O)=C3C(=O)c4c(O)cccc4[C@@](C)(O)[C@H]3C[C@@H]12 [Tetracycline hydrochloride] | < 0 | < 0 | < 0 | < 0 | < 0 | < 0 | < 0 | < 0 |
| CC(NCCc1ccc(O)cc1)C(O)c1ccc(O)cc1 (stereo unspecified) [Ritodrine hydrochloride] | < 0 | < 0 | < 0 | < 0 | < 0 | < 0 | < 0 | < 0 |
| CNC(=O)c1cc(Oc2ccc(NC(=O)Nc3ccc(Cl)c(C(F)(F)F)c3)c(F)c2)ccn1 [Regorafenib (BAY 73-4506)] | < 0 | < 0 | < 0 | < 0 | < 0 | < 0 | < 0 | < 0 |
| COc1cc(C2Oc3cc([C@H]4Oc5cc(O)cc(O)c5C(=O)[C@@H]4O)ccc3OC2CO)ccc1O (stereo partly specified) [Silybin] | < 0 | 7.41 | < 0 | < 0 | < 0 | < 0 | < 0 | < 0 |
| COc1ccc(S(=O)(=O)N(C(C)=O)c2ccccc2/C=C/c2cc[n+]([O-])cc2)cc1 | 21.1 | 32.6 | 55.8 | 71.6 | 32 | 44.7 | 45.7 | 88.3 |
| COc1ccc(CCN(C)CCCC(C#N)(c2ccc(OC)c(OC)c2)C(C)C)cc1OC (stereo unspecified) [Verapamil] | < 0 | < 0 | < 0 | < 0 | < 0 | < 0 | < 0 | < 0 |
| Cc1[nH]c(=O)c(C#N)cc1-c1ccc2nccn2c1 [Olprinone] | < 0 | < 0 | < 0 | < 0 | < 0 | 12.4 | 3.92 | < 0 |
| Cc1ccc(C(N)=O)cc1Nc1nccc(-c2cn(C(C)C)c3cnccc23)n1 | < 0 | < 0 | < 0 | < 0 | < 0 | < 0 | < 0 | < 0 |
| CNC1CCC(N(Cc2cccc(-c3ccncc3)c2)C(=O)c2sc3c(F)ccc(F)c3c2Cl)CC1 (stereo unspecified) | < 0 | < 0 | < 0 | 0.81 | < 0 | < 0 | < 0 | < 0 |

Reference: the supplement of paper PMC9015667
